Values from PubChem BioAssay AID1159579 (Peter MacCallum Cancer Centre, 2015).
Purpose: 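Retest candidate lymphatic endothelial migration regulators using several independent siRNAs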 (follow-up of hits). Cells: human dermal lymphatic endothelial cells. Reagents: single siRNA against human genes, 25 nM. Measurement: 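Scratch wound imaging measuring area filled by moving cells plus nuclei number, averaged over two wells and scaled to mock-transfected controls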. Reading the numbers: migration relative to mock: higher = more migration into the scratch; mean nuclei count: higher = more cells remaining. Rule for the call: 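a ratio of at most 0.6 or at least 1.3 marks altered migration and an active call; a mean nuclei count under 3300 forces an inactive call regardless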. Calls: active = migration changed (impaired or accelerated); inactive = no migration change, or too few cells.
In all, the deposit lists about 2,000 reagents; shown is a part drawn at random. 549 of all reagents (27%) count as active. 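Some migration ratios are negative; siRNAs with too few cells are inactive whatever their migration ratio.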 Reagents against one gene are numbered here. Not stated in the record: the time to read-out.

gene symbol,reagent,migration relative to mock,migration and cell number class,mean nuclei count,outcome
SMURF2,1,0.55,migration reduced,5172,active
SMURF2,2,0.45,migration reduced,4914,active
SMURF2,3,0.76,no change in migration or cell number,6070,inactive
SMURF2,4,0.98,no change in migration or cell number,5900,inactive
SYCP2L,1,0.45,migration reduced,6126,active
SYCP2L,2,0.61,no change in migration or cell number,5008,inactive
SYCP2L,3,0.72,no change in migration or cell number,5418,inactive
SYCP2L,4,0.96,no change in migration or cell number,6306,inactive
TUBA1B,1,0.77,too few cells; migration not scored,3276,inactive
TUBA1B,2,0.77,no change in migration or cell number,4380,inactive
TUBA1B,3,0.6,migration reduced,3794,active
TUBA1B,4,0.44,migration reduced,4078,active
SGIP1,1,0.3,migration reduced,3396,active
SGIP1,2,1.24,no change in migration or cell number,6681,inactive
SGIP1,3,0.83,no change in migration or cell number,5239,inactive
SGIP1,4,0.88,no change in migration or cell number,4922,inactive
THBS2,1,1.08,no change in migration or cell number,5902,inactive
THBS2,2,1,no change in migration or cell number,5758,inactive
THBS2,3,0.91,no change in migration or cell number,5626,inactive
THBS2,4,0.78,no change in migration or cell number,5735,inactive
PRNP,1,0.91,no change in migration or cell number,5236,inactive
PRNP,2,1.2,no change in migration or cell number,5456,inactive
PRNP,3,1.14,no change in migration or cell number,4563,inactive
PRNP,4,0.85,no change in migration or cell number,4192,inactive
PI4KA,1,0.38,migration reduced,5922,active
PI4KA,2,0.76,no change in migration or cell number,5919,inactive
PI4KA,3,0.32,migration reduced,4968,active
PI4KA,4,0.92,no change in migration or cell number,5928,inactive
POMK,1,0.66,no change in migration or cell number,4321,inactive
POMK,2,0.99,no change in migration or cell number,5700,inactive
POMK,3,0.89,no change in migration or cell number,6356,inactive
POMK,4,0.98,no change in migration or cell number,5746,inactive

Part of the list above, reformatted:
gene symbol | reagent | migration relative to mock | migration and cell number class | mean nuclei count | outcome
TUBA1B | 3 | 0.6 | migration reduced | 3794 | active
TUBA1B | 4 | 0.44 | migration reduced | 4078 | active
SGIP1 | 1 | 0.3 | migration reduced | 3396 | active
SGIP1 | 2 | 1.24 | no change in migration or cell number | 6681 | inactive
SGIP1 | 3 | 0.83 | no change in migration or cell number | 5239 | inactive
SGIP1 | 4 | 0.88 | no change in migration or cell number | 4922 | inactive
THBS2 | 1 | 1.08 | no change in migration or cell number | 5902 | inactive
THBS2 | 2 | 1 | no change in migration or cell number | 5758 | inactive
THBS2 | 3 | 0.91 | no change in migration or cell number | 5626 | inactive
THBS2 | 4 | 0.78 | no change in migration or cell number | 5735 | inactive

The results go on:
gene symbol,reagent,migration relative to mock,migration and cell number class,mean nuclei count,outcome
MTRFR,1,0.96,no change in migration or cell number,5874,inactive
MTRFR,2,1.03,no change in migration or cell number,5040,inactive
MTRFR,3,1.08,no change in migration or cell number,5376,inactive
MTRFR,4,1,no change in migration or cell number,6215,inactive
PLCL1,1,0.75,no change in migration or cell number,5427,inactive
PLCL1,2,0.76,no change in migration or cell number,4746,inactive
PLCL1,3,0.86,no change in migration or cell number,4512,inactive
PLCL1,4,1.48,migration increased,5610,active
CIB1,1,0.18,migration reduced,5544,active
CIB1,2,0.63,no change in migration or cell number,5892,inactive
CIB1,3,0.92,no change in migration or cell number,4697,inactive
CIB1,4,0.61,no change in migration or cell number,4666,inactive
TMEM71,1,0.97,no change in migration or cell number,6814,inactive
TMEM71,2,0.87,no change in migration or cell number,4518,inactive
TMEM71,3,0.64,no change in migration or cell number,5138,inactive
TMEM71,4,0.11,migration reduced,3876,active
AKT2,1,0.84,no change in migration or cell number,7106,inactive
AKT2,2,0.92,no change in migration or cell number,6862,inactive
AKT2,3,0.7,no change in migration or cell number,5480,inactive
AKT2,4,1.08,no change in migration or cell number,7283,inactive
STC2,1,1.06,no change in migration or cell number,5483,inactive
STC2,2,1.17,no change in migration or cell number,5086,inactive
STC2,3,1.02,no change in migration or cell number,5760,inactive
STC2,4,1.1,no change in migration or cell number,5345,inactive
RPS6KA3,1,0.88,no change in migration or cell number,6298,inactive
RPS6KA3,2,1.02,no change in migration or cell number,6370,inactive
RPS6KA3,3,1,no change in migration or cell number,5700,inactive
RPS6KA3,4,0.96,no change in migration or cell number,6821,inactive
FBXO44,1,0.78,no change in migration or cell number,6082,inactive
FBXO44,2,0.94,no change in migration or cell number,7074,inactive
FBXO44,3,0.6,migration reduced,6732,active
FBXO44,4,0.13,too few cells; migration not scored,2264,inactive
SPDYA,1,0.94,no change in migration or cell number,5139,inactive
SPDYA,2,0.82,no change in migration or cell number,5540,inactive
SPDYA,3,0.14,migration reduced,4250,active
SPDYA,4,0.4,too few cells; migration not scored,2877,inactive
